Test results from paper PMC9418313, “Multivalent interactions between molecular components involved in fast endophilin mediated endocytosis drive protein phase separation” (Nature Communications, 2022).
No constants are given. Whether binding was seen depends on the method and setting. Some results given as binding are weak or reduced against the parent protein; the word gives no strength.

By UniProt entry, the sequences of proteins in these tests, tags left out. Residues count along the entry.
UniProt Q70E73, residues 850-1250: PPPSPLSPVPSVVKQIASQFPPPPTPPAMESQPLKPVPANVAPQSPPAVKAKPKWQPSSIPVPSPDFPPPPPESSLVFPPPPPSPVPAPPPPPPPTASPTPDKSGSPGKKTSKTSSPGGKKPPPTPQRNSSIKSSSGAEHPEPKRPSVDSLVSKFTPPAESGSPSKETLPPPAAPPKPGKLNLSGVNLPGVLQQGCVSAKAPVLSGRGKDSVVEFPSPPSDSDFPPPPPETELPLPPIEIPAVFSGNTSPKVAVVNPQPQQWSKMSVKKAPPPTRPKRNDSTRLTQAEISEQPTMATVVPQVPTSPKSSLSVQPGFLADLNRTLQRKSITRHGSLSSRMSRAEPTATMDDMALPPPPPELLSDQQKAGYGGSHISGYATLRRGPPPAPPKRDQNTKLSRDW
UniProt P08588, residues 246-325: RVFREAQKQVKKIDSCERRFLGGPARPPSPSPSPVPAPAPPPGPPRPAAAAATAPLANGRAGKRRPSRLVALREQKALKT
UniProt P50552: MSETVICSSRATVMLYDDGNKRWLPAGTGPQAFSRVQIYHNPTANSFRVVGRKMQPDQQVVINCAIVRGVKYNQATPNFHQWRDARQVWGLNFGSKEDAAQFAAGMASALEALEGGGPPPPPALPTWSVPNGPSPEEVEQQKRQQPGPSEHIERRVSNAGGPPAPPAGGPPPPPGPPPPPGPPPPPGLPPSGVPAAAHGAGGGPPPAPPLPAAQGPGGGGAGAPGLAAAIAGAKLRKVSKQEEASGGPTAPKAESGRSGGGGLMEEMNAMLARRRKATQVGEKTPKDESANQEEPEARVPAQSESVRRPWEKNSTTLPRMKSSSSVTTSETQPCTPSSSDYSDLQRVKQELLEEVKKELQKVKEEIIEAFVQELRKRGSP

Legend:
[1] = biological target: lamellipodin C-terminal domain fragment LPD^850–1250 with C-terminal His6 tag (UniProt Q70E73); assay: clustering on supported lipid bilayers (confocal microscopy); TIL-His6 tethered together with LPD^850–1250-His6 or PRM7-His6 on DOPC/Ni2+-NTA lipid bilayers, no endophilin; both purified
[2] = biological target: lamellipodin C-terminal domain fragment LPD^850–1250 with C-terminal His6 tag (UniProt Q70E73); assay: liquid-liquid phase separation (droplets seen by microscopy); LPD mixed with VASP; conditions only in Supplementary Fig. 9b; both purified

binding [1]	binding [2]	Substance
binds	–	TIL-His6 of the human β1-adrenergic receptor (from UniProt P08588 246-325) (domain or fragment)
–	binds	human VASP (wild type) (from UniProt P50552 1-380)
